Source: the supplement of paper PMC12823440, “Inhibitors supercharge kinase turnover through native proteolytic circuits” (Nature, 2025)
The other results are listed elsewhere or left out. Hit calls seldom repeat between salt and free forms of one compound.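 In K562 cells expressing nanoluciferase-fused kinases, luminescence was recorded at 4 h intervals between 2 and 18 h, normalized as percent of control with DMSO at 100% and a positive control at 0%. A significant (2 sigma) signal drop marks a time point as decreased. The authors' rule for a hit is not shown and takes in more than the number of time points.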

The chains behind the UniProt entries cited, without tags or fusion partners. Where a name states a change or a piece, a line headed by the entry shows the natural chain unless it says otherwise.
UniProt P42680: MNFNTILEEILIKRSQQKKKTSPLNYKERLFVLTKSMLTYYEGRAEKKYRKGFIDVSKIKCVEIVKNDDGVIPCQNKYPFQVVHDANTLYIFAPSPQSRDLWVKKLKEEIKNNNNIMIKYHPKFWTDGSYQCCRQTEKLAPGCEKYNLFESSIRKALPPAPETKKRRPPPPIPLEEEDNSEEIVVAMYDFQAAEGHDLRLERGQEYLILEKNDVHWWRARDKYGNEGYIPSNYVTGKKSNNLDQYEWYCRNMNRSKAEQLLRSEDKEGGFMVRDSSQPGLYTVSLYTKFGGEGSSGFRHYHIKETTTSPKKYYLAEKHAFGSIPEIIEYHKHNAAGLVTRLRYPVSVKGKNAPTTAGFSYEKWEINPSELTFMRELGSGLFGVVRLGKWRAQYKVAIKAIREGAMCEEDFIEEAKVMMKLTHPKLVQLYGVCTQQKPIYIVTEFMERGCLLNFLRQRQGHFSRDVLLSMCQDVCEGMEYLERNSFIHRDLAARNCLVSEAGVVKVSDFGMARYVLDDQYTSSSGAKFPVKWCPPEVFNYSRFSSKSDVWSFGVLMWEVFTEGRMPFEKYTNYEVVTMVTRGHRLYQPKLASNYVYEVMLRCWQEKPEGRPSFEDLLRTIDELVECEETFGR

Molecular target: SYK (UniProt P43405)
Test: number of time points (of 5) at which kinase-Nluc abundance scored as decreased, DMSO-normalised (count); higher = more persistent destabilization
Conditions: K562; 2-18 h

Structure (SMILES) | number of time points
Cc1ccc(-c2ncn(-c3ccc(Nc4nccc(-c5cccc(N6CCOCC6)c5)n4)cc3)n2)cn1 (10 µM) | 0
COc1ccc2c(c1OC)OC1c3ccc(O)cc3OCC21 (stereo not drawn) [Methylnissolin] (10 µM) | 0
Cn1cc(-c2ccc3nnc(C(F)(F)c4ccc5ncccc5c4)n3n2)cn1 (10 µM) | 0
Nc1ncc(-c2ccc(C(=O)N3CCNCC3)cc2)nc1-c1ccc(C(F)(F)F)cc1 (10 µM) | 0
CN(C)Cc1cccc(N=C(c2ccccc2)c2c(O)[nH]c3cc(C(=O)N(C)C)ccc23)c1 (10 µM) | 0

Molecular target: TEC (UniProt P42680)
Test: as above
Conditions: K562; 2-18 h

Structure (SMILES) | number of time points
C[C@H]1Cc2ccccc2N1C(=O)Cc1nc(N2CCOCC2)cc(=O)[nH]1 (2.5 µM) | 0
CC(C)c1cc(/C=C(\C#N)C(N)=O)cc(C(C)C)c1O (10 µM) | 0
COc1c(C)c(C(=O)c2ccc(N)c(C(=O)O)c2)n2ccccc12 (10 µM) | 0
C[C@@H]1CCc2ncc(F)cc2[C@H]2CCCN2c2ccn3ncc(c3n2)C(=O)N1 [Selitrectinib] (10 µM) | 0
CCN(C)C(=O)c1ccc2c(C(=Nc3ccc(CN4CCCCC4)cc3)c3ccccc3)c(O)[nH]c2c1 (2.5 µM) | 0
O=C(CO)N1CCC(c2n[nH]c(-c3ccc(Cl)cc3)c2-c2ccncn2)CC1 (10 µM) | 0
C[C@@H]1COCCN1c1cc(C2([S@](C)(=N)=O)CC2)nc(-c2cc[nH]c3nccc2-3)n1 [Ceralasertib] (2.5 µM) | 0
CCOC(=O)c1c2c3c(cccc3[nH]c1=O)C(=O)c1ccccc1-2 (10 µM) | 0

Random excerpt: 2 compounds from above
Structure (SMILES) | number of time points
C[C@@H]1COCCN1c1cc(C2([S@](C)(=N)=O)CC2)nc(-c2cc[nH]c3nccc2-3)n1 [Ceralasertib] (2.5 µM) | 0
CCOC(=O)c1c2c3c(cccc3[nH]c1=O)C(=O)c1ccccc1-2 (10 µM) | 0
